For one assay, the target named is γ-CA from E. coli (Escherichia coli, UniProt P0A9W9). The assay is classed as biochemical. Particulars: stopped-flow CO2 hydrase assay; mean from 3 different assays.
In a further assay the target is β-CA from E. coli (Escherichia coli, UniProt P61517). The assay is described as follows: stopped-flow CO2 hydrase assay, E. coli β-CA. Type of assay: biochemical. Particulars: mean from 3 different assays. How it is done:
An Applied PhotoPhysics stopped-flow instrument was used for assaying the CA-catalyzed CO2 hydration activity. […] The CO2 concentrations ranged from 1.7 to 17 mM for the determination of the kinetic parameters and inhibition constants. […] However, the background activity from the uncatalyzed reaction was always subtracted when IC50 values were obtained by using the data analysis software for the stopped-flow instrument. Enzyme concentrations ranged between 5 and 10 nM. For each inhibitor, at least six traces of the initial 5–10% of the reaction were used for determining the initial velocity. The uncatalyzed rates were determined in the same manner and subtracted from the total observed rates. Stock solutions of the inhibitor (0.1 mM) were prepared in distilled–deionized water, and dilutions up to 0.01 nM were carried out thereafter with the assay buffer. Inhibitor and enzyme solutions were preincubated together for 15 min at room temperature prior to the assay to allow for the formation of the E–I complex. The inhibition constants were obtained by nonlinear least-squares methods using PRISM 3 and the Cheng–Prusoff equation, as reported earlier, and represent the mean from at least three different determinations. All CA isoforms were recombinant proteins obtained in house, as reported earlier.

Chains of the proteins cited; added tags and fusions are not shown. Lines headed by an entry give the natural chain unless they say otherwise; changes in a name come on top.
UniProt P0A9W9: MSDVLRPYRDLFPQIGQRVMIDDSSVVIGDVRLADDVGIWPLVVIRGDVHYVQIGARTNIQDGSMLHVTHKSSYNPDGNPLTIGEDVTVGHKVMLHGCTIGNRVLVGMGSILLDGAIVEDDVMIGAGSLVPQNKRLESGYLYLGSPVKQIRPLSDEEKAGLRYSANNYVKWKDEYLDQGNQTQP
UniProt P61517: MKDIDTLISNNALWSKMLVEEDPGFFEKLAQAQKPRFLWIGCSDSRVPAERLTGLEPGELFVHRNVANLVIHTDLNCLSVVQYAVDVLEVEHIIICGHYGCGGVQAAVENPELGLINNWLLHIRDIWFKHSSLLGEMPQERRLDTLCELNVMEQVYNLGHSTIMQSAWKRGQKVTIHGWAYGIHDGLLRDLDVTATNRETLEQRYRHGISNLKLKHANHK

Structures are written as SMILES.

For orientation: Ki means the dissociation constant of the complex between target and ligand, obtained from inhibition or displacement. Low values mean a stronger hold on the target, high ones a looser hold on the target. On to `CC(=O)Nc1nnc(S(N)(=O)=O)s1` [AAZ, acetazolamide, reference compound], for which the figures for the Ki on γ-CA from E. coli and on β-CA from E. coli were 0.248 µM and 0.227 µM, respectively.

Values taken from article PMC8955975, “Pyrazolo[4,3-c]pyridine Sulfonamides as Carbonic Anhydrase Inhibitors: Synthesis, Biological and In Silico Studies” (Pharmaceuticals, 2022).
